Assay: O-series vs U-series inhaler: discharge and particle size of crystalline and amorphous powders (Example 14)
Format: physicochemical
Settings: fill 25 mg, 4 kPa
Method: These experiments were conducted to test various inhaler designs in trying to improve percent dose discharge or increase device emptying to acceptable ranges for certain types of powders used. […] In these experiments, therefore, two types of dry powder inhalers were designed and built. An O-series (FIGS. 49 and 50) dry powder inhaler wherein the inhaler comprises rigid conduits which generate a tumbling, recirculating action of an airflow through the powder container during an inhalation in an O-shape prior to the airflow exiting the container. […]
The rigid flow conduits as illustrated in FIGS. 49 and 51 can be adapted to any type of dry powder inhaler for delivering different types of powder compositions. […] Inhaler performance was tested and evaluated from measurements using various parameters, such as pressure differential, powder content prior to and after testing of various powders via a simulated single inhalation. The particle size distribution of the discharged powder plume for each inhaler used was also measured as described in Example 7 above.

Which results are given for `O=C(O)/C=C/C(=O)NCCCCC1NC(=O)C(CCCCNC(=O)/C=C/C(=O)O)NC1=O` (centres unmarked) [FDKP, 3,6-bis(N-fumaryl-4-aminobutyl)-2,5-diketopiperazine]?
% CE (Sample 1, O-series): 93.02%; % CE (Sample 2, U-series): 93.90%
